This test concerns the target T1, Hms (Streptomyces coelicolor, UniProt Q9Z4X7).
T1 construct: gene SCO3229; full-length, C-terminal Strep-tag II kept, expressed in E. coli BL21(DE3) from pKYB1; monomer, ~45 kDa
T1 sequence (Q9Z4X7 1-371): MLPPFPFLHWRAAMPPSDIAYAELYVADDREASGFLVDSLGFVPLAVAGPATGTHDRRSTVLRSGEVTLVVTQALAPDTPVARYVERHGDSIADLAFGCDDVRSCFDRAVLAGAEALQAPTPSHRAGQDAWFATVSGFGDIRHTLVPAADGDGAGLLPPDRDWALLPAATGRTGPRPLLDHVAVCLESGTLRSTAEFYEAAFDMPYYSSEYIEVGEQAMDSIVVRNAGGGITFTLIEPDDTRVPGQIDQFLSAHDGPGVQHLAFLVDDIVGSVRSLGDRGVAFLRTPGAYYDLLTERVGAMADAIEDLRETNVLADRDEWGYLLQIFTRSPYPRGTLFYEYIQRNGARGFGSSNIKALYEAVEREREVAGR
As to the kind of experiment: O2 consumption, micro-optode, steady state. Conditions: apparent constant at air saturation; 20 mM Tris/HCl pH 7.5, 25 °C; no added Fe(II). The test is classed as biochemical. From the text: O2 consumption, micro-optode, steady state on Hms

Molecules are shown by their SMILES.

In the case of `O=C(O)C(=O)Cc1ccc(O)cc1` [HPP, p-hydroxyphenylpyruvic acid], the Km stood at 220 ± 80 µM.
